Values from PubChem BioAssay AID1508597 (Cure First, 2020).

Test: 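Knock-downs altering ovarian cancer cell survival with or without PARP inhibitor rucaparib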 (primary screen)
System: human ovarian carcinoma lines grown from tumours: OCI-P5x (papillary serous) and OCI-C5x (clear cell)
Reagent: siRNA pool against human genes, 1.25 pmol siRNA per well
Duration: 72 h or 96 h, depending on the cell culture
Conditions: rucaparib 20 µM (about IC30) or vehicle, present until read-out
Rucaparib or vehicle: Rucaparib
Cell line: OCI-C5x (clear cell)
Detection: 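ATP luminescence measured at 72 or 96 h according to the culture, then normalised and expressed as percent viability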
Reading the numbers: viability, normalised: higher = more viable cells remaining
Active means: 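a well counts as a hit if its normalised viability is under 80 percent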
Meaning of the calls: active = viability under 80%; inactive = viability 80% or more
This is an unselected part of the about 2,100 reagents, under one of the conditions tested. 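Calls flag viability under 80% in either arm, not effects specific to rucaparib; the reference for percent is not stated.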 Not given: the 100% reference.

gene	PubChem SID	technical replicate	viability, normalised (%)	activity call
PLCE1 (phospholipase C epsilon 1)	SID405526712	1	67.7	active
PLCE1 (phospholipase C epsilon 1)	SID405526712	2	66.2	active
PLCE1 (phospholipase C epsilon 1)	SID405526712	3	54.3	active
ADAM17 (ADAM metallopeptidase domain 17)	SID405527951	1	71.7	active
ADAM17 (ADAM metallopeptidase domain 17)	SID405527951	2	43.2	active
ADAM17 (ADAM metallopeptidase domain 17)	SID405527951	3	57.9	active
NTRK3 (neurotrophic receptor tyrosine kinase 3)	SID405527399	1	63.1	active
NTRK3 (neurotrophic receptor tyrosine kinase 3)	SID405527399	2	61.9	active
NTRK3 (neurotrophic receptor tyrosine kinase 3)	SID405527399	3	69.9	active
PHF13 (PHD finger protein 13)	SID405527142	1	51.6	active
PHF13 (PHD finger protein 13)	SID405527142	2	32.8	active
PHF13 (PHD finger protein 13)	SID405527142	3	32.9	active
L3MBTL3 (L3MBTL histone methyl-lysine binding protein 3)	SID405526950	1	46.6	active
L3MBTL3 (L3MBTL histone methyl-lysine binding protein 3)	SID405526950	2	42	active
L3MBTL3 (L3MBTL histone methyl-lysine binding protein 3)	SID405526950	3	47.5	active
CDK10 (cyclin dependent kinase 10)	SID405527412	1	57	active
CDK10 (cyclin dependent kinase 10)	SID405527412	2	63.9	active
CDK10 (cyclin dependent kinase 10)	SID405527412	3	38.8	active
PRKAR2A	SID405527529	1	53.5	active
PRKAR2A	SID405527529	2	78.1	active
PRKAR2A	SID405527529	3	57.8	active
SMYD2 (SET and MYND domain containing 2)	SID405527347	1	28.3	active
SMYD2 (SET and MYND domain containing 2)	SID405527347	2	20.9	active
SMYD2 (SET and MYND domain containing 2)	SID405527347	3	37.2	active
POLE (DNA polymerase epsilon, catalytic subunit)	SID405528329	1	62.6	active
POLE (DNA polymerase epsilon, catalytic subunit)	SID405528329	2	38.9	active
POLE (DNA polymerase epsilon, catalytic subunit)	SID405528329	3	47.8	active
STK38 (serine/threonine kinase 38)	SID405527657	1	57.3	active
STK38 (serine/threonine kinase 38)	SID405527657	2	46.3	active
STK38 (serine/threonine kinase 38)	SID405527657	3	64	active
SP140 (SP140 nuclear body protein)	SID405526491	1	47.9	active
SP140 (SP140 nuclear body protein)	SID405526491	2	34.1	active
SP140 (SP140 nuclear body protein)	SID405526491	3	34	active
EPHB6 (EPH receptor B6)	SID405527571	1	57.5	active
EPHB6 (EPH receptor B6)	SID405527571	2	54.3	active
EPHB6 (EPH receptor B6)	SID405527571	3	62.8	active
MOS (MOS proto-oncogene, serine/threonine kinase)	SID405528518	1	67.1	active
MOS (MOS proto-oncogene, serine/threonine kinase)	SID405528518	2	62.7	active
MOS (MOS proto-oncogene, serine/threonine kinase)	SID405528518	3	48	active
HDAC8 (histone deacetylase 8)	SID405526846	1	74.3	active
HDAC8 (histone deacetylase 8)	SID405526846	2	55	active
HDAC8 (histone deacetylase 8)	SID405526846	3	59.9	active
PAK5 (p21 (RAC1) activated kinase 5)	SID405528533	1	33.1	active
PAK5 (p21 (RAC1) activated kinase 5)	SID405528533	2	41.1	active
PAK5 (p21 (RAC1) activated kinase 5)	SID405528533	3	35.7	active
SPAG11B (sperm associated antigen 11B)	SID405528452	1	53.2	active
SPAG11B (sperm associated antigen 11B)	SID405528452	2	44.9	active
SPAG11B (sperm associated antigen 11B)	SID405528452	3	62	active
USP22 (ubiquitin specific peptidase 22)	SID405526612	1	81.6	inactive
USP22 (ubiquitin specific peptidase 22)	SID405526612	2	53.6	active
USP22 (ubiquitin specific peptidase 22)	SID405526612	3	50.5	active
PARP15 (poly(ADP-ribose) polymerase family member 15)	SID405527109	1	14.4	active
PARP15 (poly(ADP-ribose) polymerase family member 15)	SID405527109	2	13.7	active
PARP15 (poly(ADP-ribose) polymerase family member 15)	SID405527109	3	21.2	active
MARK2 (microtubule affinity regulating kinase 2)	SID405527780	1	82.6	inactive
MARK2 (microtubule affinity regulating kinase 2)	SID405527780	2	106	inactive
MARK2 (microtubule affinity regulating kinase 2)	SID405527780	3	64.8	active
MACROD1 (mono-ADP ribosylhydrolase 1)	SID405526963	1	52.1	active
MACROD1 (mono-ADP ribosylhydrolase 1)	SID405526963	2	55.5	active
MACROD1 (mono-ADP ribosylhydrolase 1)	SID405526963	3	49.9	active
TTN (titin)	SID405527625	1	65.7	active
TTN (titin)	SID405527625	2	59	active
TTN (titin)	SID405527625	3	71.3	active
PDE4D (phosphodiesterase 4D)	SID405526692	1	58	active
PDE4D (phosphodiesterase 4D)	SID405526692	2	35.8	active
PDE4D (phosphodiesterase 4D)	SID405526692	3	34.3	active
RIGI (RNA sensor RIG-I)	SID405528202	1	69.4	active
RIGI (RNA sensor RIG-I)	SID405528202	2	47.9	active
RIGI (RNA sensor RIG-I)	SID405528202	3	55.2	active
NLGN2 (neuroligin 2)	SID405527076	1	51.5	active
NLGN2 (neuroligin 2)	SID405527076	2	43.6	active
NLGN2 (neuroligin 2)	SID405527076	3	54.9	active
SMC1B (structural maintenance of chromosomes 1B)	SID405527339	1	51.5	active
SMC1B (structural maintenance of chromosomes 1B)	SID405527339	2	55.4	active
SMC1B (structural maintenance of chromosomes 1B)	SID405527339	3	43.1	active

6 consecutive records already listed:
gene	PubChem SID	technical replicate	viability, normalised (%)	activity call
POLE (DNA polymerase epsilon, catalytic subunit)	SID405528329	1	62.6	active
POLE (DNA polymerase epsilon, catalytic subunit)	SID405528329	2	38.9	active
POLE (DNA polymerase epsilon, catalytic subunit)	SID405528329	3	47.8	active
STK38 (serine/threonine kinase 38)	SID405527657	1	57.3	active
STK38 (serine/threonine kinase 38)	SID405527657	2	46.3	active
STK38 (serine/threonine kinase 38)	SID405527657	3	64	active
